Measurements reported in PubChem BioAssay AID652243 (Drosophila RNAi Screening Center, 2013)
Purpose: 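Knock-downs that decrease or increase androgen receptor reporter signal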 (primary screen). Cell system: Drosophila S2R+ cells. Knock-down reagent: long dsRNA against Drosophila genes. Time to read-out: 72 h (48 h, then 24 h hormone). Treatment: synthetic androgen R1881 at 10 nM for 24 h. Detection: 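Per-well raw luminescence of the androgen-driven firefly reporter and of the Renilla control, two replicates each, without normalisation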. Direction: firefly reporter light: higher = more light from androgen-responsive reporter; Renilla control light: higher = more constitutive control signal (cell number, transfection). Rule for the call: 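Hit when the log firefly-to-Renilla ratio dropped or increased by a fixed fold versus the mean of GFP or LacZ controls across duplicate plates; lowering cut given as 1.5 and as 3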. Meaning of the calls: active = hit: reporter lowered or raised; inactive = no hit.
The screen tested about 24,000 reagents; this is an unselected part of those that have a named target and a result. Over the whole deposit, 246 (1%) got an active call. 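Plates not normalised; calls are printed but the firefly/Renilla ratio behind them is not deposited; fold cut for lowering reported inconsistently.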 Raw values are not corrected between plates. Not given: the amount of reagent.

| target | amplicon | firefly reporter light, replicate 1 | firefly reporter light, replicate 2 | Renilla control light, replicate 1 | Renilla control light, replicate 2 | outcome |
| --- | --- | --- | --- | --- | --- | --- |
| Ptp10D (Protein tyrosine phosphatase 10D) | DRSC20272 | 2.20e5 | 1.79e5 | 3.02e6 | 2.32e6 | inactive |
| Ptp10D (Protein tyrosine phosphatase 10D) | DRSC36634 | – | – | – | – | inactive |
| Ptp10D (Protein tyrosine phosphatase 10D) | DRSC36635 | – | – | – | – | inactive |
| Ptp10D (Protein tyrosine phosphatase 10D) | DRSC39114 | 6.50e5 | 8.34e5 | 1.33e6 | 2.17e6 | inactive |
| CG34375 | DRSC14684 | 1.99e5 | 2.02e5 | 3.01e6 | 2.77e6 | inactive |
| CG34375 | DRSC14685 | 76177 | 86473 | 1.98e6 | 2.23e6 | inactive |
| CG34375 | DRSC24412 | 1.18e6 | 9.20e5 | 7.56e5 | 7.75e5 | inactive |
| mip120 (Myb-interacting protein 120) | DRSC06960 | 97355 | 1.22e5 | 2.72e6 | 2.72e6 | inactive |
| mip120 (Myb-interacting protein 120) | DRSC29182 | 7.37e5 | 6.23e5 | 1.77e6 | 1.98e6 | inactive |
| LpR1 (Lipophorin receptor 1) | DRSC15665 | 81113 | 1.01e5 | 8.10e5 | 8.07e5 | inactive |
| LpR1 (Lipophorin receptor 1) | DRSC15669 | 1.85e5 | 1.87e5 | 2.13e6 | 2.22e6 | inactive |
| LpR1 (Lipophorin receptor 1) | DRSC15670 | 1.65e5 | 2.19e5 | 1.66e6 | 1.94e6 | inactive |
| LpR1 (Lipophorin receptor 1) | DRSC27848 | 1.11e6 | 7.57e5 | 4.45e6 | 2.08e6 | inactive |
| CG42784 | DRSC02534 | 1.07e6 | 1.15e6 | 1.67e6 | 3.16e6 | inactive |
| CG42784 | DRSC22272 | 9.93e5 | 8.11e5 | 1.74e6 | 1.35e6 | inactive |
| CG42784 | DRSC22804 | 2.95e5 | 5.46e5 | 4.40e5 | 4.73e5 | inactive |
| CG42784 | DRSC23000 | 8.00e5 | 1.10e6 | 4.61e5 | 7.70e5 | inactive |
| CG42784 | DRSC25815 | 3.26e5 | 4.17e5 | 5.09e5 | 5.37e5 | inactive |
| CG42784 | DRSC29731 | 4.19e5 | 3.75e5 | 1.43e6 | 1.29e6 | inactive |
| tum (tumbleweed) | DRSC07575 | 1.11e5 | 1.11e5 | 2.06e6 | 2.06e6 | inactive |
| Nadk1b (NAD kinase 1b) | DRSC06964 | 9.63e5 | 9.21e5 | 2.43e6 | 2.66e6 | inactive |
| Nadk1b (NAD kinase 1b) | DRSC06965 | 66798 | 1.15e5 | 1.98e6 | 1.98e6 | inactive |
| Nadk1b (NAD kinase 1b) | DRSC25741 | 8.13e5 | 7.59e5 | 1.31e6 | 1.45e6 | inactive |
| Mkk4 (MAP kinase kinase 4) | DRSC16739 | 1.58e5 | 1.71e5 | 2.82e6 | 2.54e6 | inactive |
| Mkk4 (MAP kinase kinase 4) | DRSC29113 | 5.03e5 | 3.45e5 | 1.65e6 | 1.04e6 | inactive |
| Mkk4 (MAP kinase kinase 4) | DRSC37035 | – | – | – | – | inactive |

3 of these entries, reformatted.
CG34375 [DRSC14685]
- firefly reporter light, replicate 1: 76177
- firefly reporter light, replicate 2: 86473
- Renilla control light, replicate 1: 1.98e6
- Renilla control light, replicate 2: 2.23e6
- outcome: inactive

CG34375 [DRSC24412]
- firefly reporter light, replicate 1: 1.18e6
- firefly reporter light, replicate 2: 9.20e5
- Renilla control light, replicate 1: 7.56e5
- Renilla control light, replicate 2: 7.75e5
- outcome: inactive

mip120 (Myb-interacting protein 120) [DRSC06960]
- firefly reporter light, replicate 1: 97355
- firefly reporter light, replicate 2: 1.22e5
- Renilla control light, replicate 1: 2.72e6
- Renilla control light, replicate 2: 2.72e6
- outcome: inactive
